Assay [1] addresses c-Cbl (c-Casitas B lineage lymphoma), E3 ubiquitin ligase (human (endogenous in B cells of CLL patients and healthy donors)) (UniProt P22681). Put plainly: condition: only in neoplastic B lymphocytes of CLL patients, at steady state and upon anti-IgM BCR stimulation; co-IP; lysates of leukemic B cells from CLL patients, unstimulated and after 5 minutes of anti-IgM or 3 minutes of anti-IgD (10 ng/mL); immunoprecipitated with anti-c-Cbl, anti-CIN85 or anti-Lyn antibody, blotted for the partner.

Sequences of proteins named here, by UniProt entry; tags and fusion partners are left off.
UniProt Q14247: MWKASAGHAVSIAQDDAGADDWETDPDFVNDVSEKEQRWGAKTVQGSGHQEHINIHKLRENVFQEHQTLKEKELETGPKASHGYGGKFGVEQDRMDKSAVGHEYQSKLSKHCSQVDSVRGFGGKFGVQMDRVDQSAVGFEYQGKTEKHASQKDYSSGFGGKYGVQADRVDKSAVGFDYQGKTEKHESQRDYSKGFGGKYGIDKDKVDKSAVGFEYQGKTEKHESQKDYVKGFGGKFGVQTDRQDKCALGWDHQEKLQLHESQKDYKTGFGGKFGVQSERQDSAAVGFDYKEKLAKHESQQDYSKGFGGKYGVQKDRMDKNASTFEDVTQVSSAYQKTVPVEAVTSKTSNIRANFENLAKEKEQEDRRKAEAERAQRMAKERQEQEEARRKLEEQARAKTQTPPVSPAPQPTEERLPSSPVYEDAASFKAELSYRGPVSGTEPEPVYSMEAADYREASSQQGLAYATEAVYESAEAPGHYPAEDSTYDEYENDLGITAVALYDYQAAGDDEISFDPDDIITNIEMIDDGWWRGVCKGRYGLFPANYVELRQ

The target is the same in assay [2]. As to the kind of experiment: co-IP; lysates of normal B lymphocytes (Cnt, n = 3), unstimulated; immunoprecipitated with anti-c-Cbl or anti-CIN85 antibody, blotted with anti-c-Cbl and anti-CIN85.
Assay [3] has the same target. As to the kind of experiment: condition: only in CLL patients with lower Cortactin expression; co-IP; lysates of leukemic B cells of CLL patients with lower Cortactin expression (CLL#223), unstimulated; immunoprecipitated with anti-c-Cbl, blotted with anti-c-Cbl and anti-Cortactin.
Assay [4] shares this target. Put plainly: co-IP; lysates of leukemic B cells of CLL patients with Cortactin overexpression (CLL#491, CLL454), unstimulated; immunoprecipitated with anti-c-Cbl, blotted with anti-c-Cbl and anti-Cortactin.

For two substances, binding results are on record in PMC6114956.

No constants are given. Whether binding was seen depends on the method and setting. In cells and extracts the contact can be indirect. Some entries that bind do so weakly or less than the wild type.

As for “CIN85, adapter protein (from UniProt Q96B97 1-665)”, the figures for the binding entry in assay [1] and in assay [2] were “no binding” and “binds”, respectively.

For Cortactin (from UniProt Q14247 1-550), the binding entry in assay [3] was “no binding”; in assay [4], “binds”.
